Data: article PMC5700978
These are yes or no findings as the source states them, for the method shown. Binding seen in cells or lysates may run through a third protein. Some binding calls cover weakened binding; strength is not graded here.

The chains behind the UniProt entries cited, without tags or fusion partners.
UniProt Q60823: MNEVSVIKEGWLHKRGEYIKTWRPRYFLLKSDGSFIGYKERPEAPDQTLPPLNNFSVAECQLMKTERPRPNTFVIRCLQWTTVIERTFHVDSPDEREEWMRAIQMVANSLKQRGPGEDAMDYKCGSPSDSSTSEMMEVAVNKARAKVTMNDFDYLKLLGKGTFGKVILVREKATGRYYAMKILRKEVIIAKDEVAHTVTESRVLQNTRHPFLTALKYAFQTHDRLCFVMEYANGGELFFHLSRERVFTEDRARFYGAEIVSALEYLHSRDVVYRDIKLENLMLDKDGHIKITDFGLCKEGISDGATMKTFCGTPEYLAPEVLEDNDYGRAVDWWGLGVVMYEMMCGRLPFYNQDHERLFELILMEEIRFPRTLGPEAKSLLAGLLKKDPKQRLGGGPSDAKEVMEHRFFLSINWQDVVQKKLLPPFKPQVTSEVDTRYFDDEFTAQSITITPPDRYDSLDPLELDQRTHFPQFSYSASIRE
UniProt Q8CHE4: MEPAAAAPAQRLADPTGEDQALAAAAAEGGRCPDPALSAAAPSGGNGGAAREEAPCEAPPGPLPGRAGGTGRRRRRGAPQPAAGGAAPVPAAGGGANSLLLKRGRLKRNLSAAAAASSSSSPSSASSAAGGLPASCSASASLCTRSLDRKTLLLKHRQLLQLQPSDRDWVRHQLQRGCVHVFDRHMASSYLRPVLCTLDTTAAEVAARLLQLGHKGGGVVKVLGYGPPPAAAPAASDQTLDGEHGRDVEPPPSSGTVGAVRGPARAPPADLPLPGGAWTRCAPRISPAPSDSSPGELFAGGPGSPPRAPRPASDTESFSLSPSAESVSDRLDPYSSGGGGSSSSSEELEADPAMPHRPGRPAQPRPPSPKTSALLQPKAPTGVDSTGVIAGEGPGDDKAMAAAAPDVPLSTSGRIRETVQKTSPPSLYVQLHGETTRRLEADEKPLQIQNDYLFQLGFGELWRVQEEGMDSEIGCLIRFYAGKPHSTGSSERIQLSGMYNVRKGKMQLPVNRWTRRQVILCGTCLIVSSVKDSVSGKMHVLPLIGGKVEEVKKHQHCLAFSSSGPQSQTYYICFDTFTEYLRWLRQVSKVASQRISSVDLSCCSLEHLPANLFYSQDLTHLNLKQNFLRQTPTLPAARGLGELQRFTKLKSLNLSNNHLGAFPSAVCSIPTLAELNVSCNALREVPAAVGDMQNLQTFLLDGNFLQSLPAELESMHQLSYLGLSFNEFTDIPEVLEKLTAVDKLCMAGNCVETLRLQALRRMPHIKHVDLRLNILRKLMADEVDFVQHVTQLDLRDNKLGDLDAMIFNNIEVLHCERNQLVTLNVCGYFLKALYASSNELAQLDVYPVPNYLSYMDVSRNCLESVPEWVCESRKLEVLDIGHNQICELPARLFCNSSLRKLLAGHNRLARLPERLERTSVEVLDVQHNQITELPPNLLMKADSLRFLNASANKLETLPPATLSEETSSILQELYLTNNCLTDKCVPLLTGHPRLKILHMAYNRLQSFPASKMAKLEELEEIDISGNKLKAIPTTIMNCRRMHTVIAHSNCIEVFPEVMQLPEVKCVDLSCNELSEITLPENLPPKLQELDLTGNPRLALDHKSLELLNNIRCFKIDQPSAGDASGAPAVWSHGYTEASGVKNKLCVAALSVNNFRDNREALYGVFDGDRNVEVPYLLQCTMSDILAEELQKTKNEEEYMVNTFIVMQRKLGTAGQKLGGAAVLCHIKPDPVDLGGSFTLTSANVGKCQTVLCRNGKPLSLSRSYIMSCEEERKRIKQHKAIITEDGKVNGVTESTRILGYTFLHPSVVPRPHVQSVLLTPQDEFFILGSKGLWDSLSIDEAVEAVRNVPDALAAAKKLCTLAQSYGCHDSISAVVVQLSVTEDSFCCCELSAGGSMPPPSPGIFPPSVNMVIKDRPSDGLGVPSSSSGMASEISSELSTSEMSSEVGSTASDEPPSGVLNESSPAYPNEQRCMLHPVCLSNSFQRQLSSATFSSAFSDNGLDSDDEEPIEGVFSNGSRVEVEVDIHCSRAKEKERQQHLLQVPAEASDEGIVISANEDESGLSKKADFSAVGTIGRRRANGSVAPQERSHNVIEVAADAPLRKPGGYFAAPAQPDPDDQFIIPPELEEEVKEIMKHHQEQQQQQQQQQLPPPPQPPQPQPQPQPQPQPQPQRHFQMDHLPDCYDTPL

Molecular target: serine/threonine protein kinase AKT2 (mouse (endogenous in skeletal muscle and eWAT)) (UniProt Q60823)
Experiment: co-IP; endogenous proteins; 500 ug lysate of soleus and EDL muscle of HFD-fed mice treated 30 days with vehicle or SAFit2; IP with anti-AKT2 or anti-FKBP51 overnight at 4 °C, protein G dynabeads, washed with ice-cold PBS; Western blot for FKBP51, (p)AKT2, (p)AS160, PHLPP1

Row | binding | Molecule
1 | binds | PHLPP1 (from UniProt Q8CHE4 1-1687) (enzyme)
2 | binds | AS160 (AKT substrate of 160 kDa) (protein, UniProt Q8BYJ6 1-1307) MESPSCIQDEPFPHPLEPEPSAPAQPGATKPGDKRFRLWYVGGSCLDRRTTLPMLPWLMAEIRRRSQKPDAGGCGAPAAREVILVLSAPFLRCVPAPGAGVGGGAGSGAVQPNTGVFIFEHKAQHISRFIHNSHDLTYFAYLIKAQPDDPESQMACHVFRATDPNQVPDVISSIRQLSKAAMKEDSKPSKDNEDAFYNSQKFEVLYCGRVIVTHKKAPSSLIDDCKDKFSLHEQQRLKLQGERGGDPGDEMGVLEVESPVSPDDSLPEKADGTVNSPRALPSLASLPALASQPALASSRVCFPERILEDCGFDEQQEFRSRCSSVTGVMQKKVHENNQKTQPRRRHASAPSHVQPSDSEKNRTMLFQVGRFEINLISPDTKSVVLEKNFKDISSCSQGIKHVDHFGFICRESPEPGLSQYICYVFQCANESLVDEVMLTLKQAFSTAAALQSAKTQIKLCETCPMHSLHKLCERIEGLYPPRAKLVIQRHLSSLTDNEQADIFERVQKMKPISDQEENELVILHLRQLCEAKQRTHVHIGEGPAIISNSTIPENVTSGGRFKLDVLKNKAKRSLTSSLENIFSRGANRMRGRLGSMDSFERANSLASEKDFSPGDSPPGTPPASPLSSAWHAFPEEDSDSPQFRRRAHTFSHPPSSSRRKLNLQDGKAHGLRSPLLRQSSSEQCSIVPSARRMYKESNSSCSLPSLHTSFSAPSFTAPSFLKSFYQNSGRLSPQYENEIRQDTASESSDGEGRKRTSSTCSNESLNAGGTPVTPRRVSWRQRIFLRVASPVNKSPSAMQQQKDGLDRTELLPLSPLSPTMEEEPLIIFLSGDEDTEKVEEKKKSKELKSLWKKAIHQQILLLRMEKENQKLEEARRDELQSRKVKLDYEEVGTCQKEILIAWDKKLLNCRTKIRCDMEDIHTSLKEGVPKSRRGEIWQFLALQYRLRHRLPNKHQPPDTSYKELLKQLTAQQHAILVDLGRTFPTHPYFSVQLGAGQLSLFNLLKAYSLLDKEVGYCQGISFVAGVLLLHMSEEQAFEMLKFLMYDLGFRKQYRPDMMSLQIQMYQLSRLLHDYHRELYNHLEENEISPSLYAAPWFLTLFASQFPLGFVARVFDIIFLQGTEVIFKVALSLLSSQEALIMECENFENIVEFLKSTLPDMNTTEMEKIITQVFEMDISKQLHAYEVEYHVLQDELLESSYACEDNESLEKLERANNQLKRQNMDLLEKLQVAHAKIQALESNLETLLTRETKMKALIRTLEQDKMAYQKTVEQIRKLLPADALANCELLLKDLTHPTNDKAKAGNKP
3 | binds | phosphorylated AS160 (pAS160) (protein, UniProt Q8BYJ6 1-1307, phosphorylated (pAS160); the site detected in this experiment is not stated) MESPSCIQDEPFPHPLEPEPSAPAQPGATKPGDKRFRLWYVGGSCLDRRTTLPMLPWLMAEIRRRSQKPDAGGCGAPAAREVILVLSAPFLRCVPAPGAGVGGGAGSGAVQPNTGVFIFEHKAQHISRFIHNSHDLTYFAYLIKAQPDDPESQMACHVFRATDPNQVPDVISSIRQLSKAAMKEDSKPSKDNEDAFYNSQKFEVLYCGRVIVTHKKAPSSLIDDCKDKFSLHEQQRLKLQGERGGDPGDEMGVLEVESPVSPDDSLPEKADGTVNSPRALPSLASLPALASQPALASSRVCFPERILEDCGFDEQQEFRSRCSSVTGVMQKKVHENNQKTQPRRRHASAPSHVQPSDSEKNRTMLFQVGRFEINLISPDTKSVVLEKNFKDISSCSQGIKHVDHFGFICRESPEPGLSQYICYVFQCANESLVDEVMLTLKQAFSTAAALQSAKTQIKLCETCPMHSLHKLCERIEGLYPPRAKLVIQRHLSSLTDNEQADIFERVQKMKPISDQEENELVILHLRQLCEAKQRTHVHIGEGPAIISNSTIPENVTSGGRFKLDVLKNKAKRSLTSSLENIFSRGANRMRGRLGSMDSFERANSLASEKDFSPGDSPPGTPPASPLSSAWHAFPEEDSDSPQFRRRAHTFSHPPSSSRRKLNLQDGKAHGLRSPLLRQSSSEQCSIVPSARRMYKESNSSCSLPSLHTSFSAPSFTAPSFLKSFYQNSGRLSPQYENEIRQDTASESSDGEGRKRTSSTCSNESLNAGGTPVTPRRVSWRQRIFLRVASPVNKSPSAMQQQKDGLDRTELLPLSPLSPTMEEEPLIIFLSGDEDTEKVEEKKKSKELKSLWKKAIHQQILLLRMEKENQKLEEARRDELQSRKVKLDYEEVGTCQKEILIAWDKKLLNCRTKIRCDMEDIHTSLKEGVPKSRRGEIWQFLALQYRLRHRLPNKHQPPDTSYKELLKQLTAQQHAILVDLGRTFPTHPYFSVQLGAGQLSLFNLLKAYSLLDKEVGYCQGISFVAGVLLLHMSEEQAFEMLKFLMYDLGFRKQYRPDMMSLQIQMYQLSRLLHDYHRELYNHLEENEISPSLYAAPWFLTLFASQFPLGFVARVFDIIFLQGTEVIFKVALSLLSSQEALIMECENFENIVEFLKSTLPDMNTTEMEKIITQVFEMDISKQLHAYEVEYHVLQDELLESSYACEDNESLEKLERANNQLKRQNMDLLEKLQVAHAKIQALESNLETLLTRETKMKALIRTLEQDKMAYQKTVEQIRKLLPADALANCELLLKDLTHPTNDKAKAGNKP
